Measurements as given in article PMC11362102, “N-terminus GTPase domain of the cytoskeleton protein FtsZ plays a critical role in its adaptation to high hydrostatic pressure” (Frontiers in Microbiology, 2024).
Results are given in words; binding and its absence hold for the method and conditions named. Some results given as binding are weak or reduced against the parent protein; the word gives no strength. Sequences can lack the tags named with a protein.

Molecular target: FtsZ from Shewanella oneidensis MR-1 (FtsZSo), His-tagged, purified (Shewanella oneidensis MR-1) (UniProt Q8E9Q1)
Experiment: in vitro polymerisation seen by negative-stain TEM; 5 uM purified FtsZ, 50 mM KCl, 10 mM MgCl2, 50 mM Tris-HCl pH 8.0, 2 mM GTP; 10 min at atmospheric pressure, then 5 h at 50 MPa, ambient temperature; fixed under pressure with glutaraldehyde, stained with 1% uranyl acetate; filament bundles counted on each grid; both purified

binding: binds weakly
B1: FtsZ from Shewanella oneidensis MR-1 (FtsZSo), His-tagged, purified (natural protein, UniProt Q8E9Q1 1-395, looked up)
chain: MFEIMDTHSDDAVIKVIGVGGGGGNAVEHMVKHNIEGVEFVVTNTDAQALRKSGAGSTIQLGRDVTKGLGAGANPEVGRAAAEEDRENIRAAIKGSDMIFIAAGMGGGTGTGAAPVVAQIAREEGILTVAVVTKPFPFEGKKRMAYAEQGIAELAKHVDSLITIPNEKLLKVLGRGTSLLDAFAAANNVLLGAVQGIAELITRPGLINVDFADVKTVMSEMGNAMMGTGVARGEDRAEEAAEAAVASPLLEDIDLAGARGVLVNITAGMDMSIEEFETVGNHVKAYASDNATVVVGAVIDPEMSDELRVTVVATGIGAEKRPDIQLVSKPAPRPEPVVVEPKVEAYVEEATHVSYAAPKGNVLPAAPAPAPAPAPSTKHELDYLDIPAFLRKQAD
notes: FtsZ of Shewanella oneidensis MR-1; ftsZSo amplified and cloned into pET28a(+) at BamHI/XhoI; the printed limits (nucleotides up to 1185, residues up to 395) point to 395 residues; Polymerises into filaments with GTP; source: E. coli Rosetta (DE3), pET28a(+), purified (Ni2+-agarose)
